Results taken from PubChem BioAssay AID2685 (National Center for Advancing Translational Sciences (NCATS), 2010).
The other results are listed elsewhere or left out. Further columns of the screen follow, without active or inactive calls. Compounds called inactive in the main read-out are mostly missing here. Words in brackets tell the shape of the fitted curve; partial curves, single points and poor fits give uncertain potencies.

Assay: qHTS Assay for Lipid Storage Modulators in Drosophila S3 Cells;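 as to cell number change: cells counted by Cell Tracker Red CMTPX staining in the red channel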
Conditions: BODIPY lipid droplet fluorescence, 18-24 h; for cell number change: measured here: cell count max response, cells fed with added oleic acid
Summary of the method: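 Drosophila S3 cells got compounds at several concentrations plus oleic acid (400 uM solution). Laser-scanning cytometry with 488 nm excitation read lipid droplets at 500-530 nm and cells at 575-640 nm. Percent activity was relative to 20 uM Triacsin C.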

[1] = measured here: cell number channel AC50, cells fed with added oleic acid
[2] = measured here: lipid fluorescence (Fed channel) AC50, cells fed with added oleic acid

Compound | cell number change | AC50 [1] | AC50 [2]
COCCn1c(SC(C)C(=O)NCC2CCCO2)nc2scc(-c3ccc(F)cc3)c2c1=O (centres undefined) | -34% | 29.1 µM [falling, single point] | –
CC(=O)Nc1ccc(S(=O)(=O)N2CCN(Cc3ccccc3[N+](=O)[O-])CC2)cc1 | 10.2% | 0.731 µM [falling, full curve] | 2.91 µM [falling, full curve]
COc1ccc(-n2c(SCC(=O)NCC3CCCO3)nc3ccccc32)cc1 (centres undefined) | -49.5% | 29.1 µM [falling, single point] | 16.4 µM [rising, partial curve]
[O-]/C(=C(\C(=S)Nc1ccc(SC(F)F)cc1)[n+]1ccccc1)c1ccc(Cl)cc1Cl | 14% | 4.61 µM [rising, partial curve, poor fit] | 6.51 µM [rising, partial curve, poor fit]
CCCOc1ccccc1Cn1c(=O)oc2ccc(C)cc21 | 110% | 2.59 µM [rising, partial curve] | 6.51 µM [rising, partial curve, poor fit]
CC1CCN(C(=O)N2c3ccccc3Sc3ccccc32)CC1 | 30.1% | 7.31 µM [rising, partial curve, poor fit] | –
CCN1/C(=C/c2cc[n+](CCCS(=O)(=O)[O-])c3ccccc23)Sc2ccccc21 | -38.8% | 0.206 µM [falling, full curve, poor fit] | 5.8 µM [falling, partial curve]
CC1(C)C(=O)C2(CCCCC2)C(=O)OC1c1cccc([N+](=O)[O-])c1 (centres undefined) | -2.5% | – | 2.91 µM [rising, partial curve]
CC1CCN(C(=O)CSc2nc3c(c(=O)n2C)SCC3)CC1 | 9.38% | – | –
COc1ccc(CNC(=S)Nc2ccc3nc(N4CCOCC4)cc(C)c3c2)cc1 | -36.9% | 25.9 µM [falling, single point] | 29.1 µM [falling, single point]
COC(=O)C(C)NC(=S)N1CCN(c2c(F)cc3c(=O)c(C(=O)O)cn(C4CC4)c3c2OC)CC1C (centres undefined) | 29.2% | 1.84 µM [rising, partial curve, poor fit] | –
Cc1cccc(-c2cc(C(=O)Nc3ccncc3)c3ccccc3n2)c1 | -34.8% | 29.1 µM [falling, single point] | 29.1 µM [falling, single point]
CCN(CC)c1ccc2nc3ccc(N)cc3[n+](-c3ccccc3)c2c1 | -98.8% | 9.2 µM [falling, partial curve] | 8.2 µM [falling, partial curve]
COC(=O)NCc1ccc(CNC(=O)OC)cc1 | -26.9% | – | 1.46 µM [falling, partial curve, poor fit]
CC(=O)c1c(C)oc2ccc(NS(=O)(=O)c3ccc(C(=O)O)cc3)cc12 | 28.3% | – | –
O=C(Nc1ccccc1N1CCN(C(=O)c2ccccc2)CC1)c1ccc(Cl)cc1 | 5.91% | – | 8.2 µM [falling, partial curve]
Cc1cccc(OCCn2c(S(=O)(=O)O)nc3ccccc32)c1 | -18% | – | –
Cc1cc(C(=O)CSc2cccc[n+]2[O-])c(C)n1-c1ccc(Br)cc1 | 36.2% | – | –
Cc1ccc(S(=O)(=O)N2CCC(C(=O)OC(C)C(=O)N(C)c3ccccc3)CC2)cc1C (centres undefined) | 12.9% | 0.411 µM [falling, single point] | 0.517 µM [falling, full curve]

Compound | cell number change | AC50 [1] | AC50 [2]
Cc1ccc(-c2nc(CS(=O)(=O)CC(=O)NC3CC3)c(C)o2)cc1 | 24.2% | – | 6.51 µM [falling, single point]
Cc1onc(-c2ccccc2Cl)c1C(=O)NCc1nc(-c2ccccc2)no1 | -0.879% | – | 29.1 µM [rising, partial curve, poor fit]
COc1ccccc1COC(=O)c1cccc(S(=O)(=O)N2CCCC2)c1 | -10% | – | –
CC(=O)Nc1ccc(CN2CCN(C3CCCCC3)C(CCO)C2)cc1 (centres undefined) | -2.91% | – | 0.92 µM [falling, full curve, poor fit]
CN1C(=O)CSc2ccc(NC(=O)Nc3ccccn3)cc21 | – | 1.46 µM [rising, partial curve] | –
COCCCNC(=O)CC(NS(=O)(=O)c1ccc(Cl)cc1)c1ccco1 (centres undefined) | – | – | 0.206 µM [falling, full curve, poor fit]
Cc1oc(-c2ccccc2)nc1CS(=O)CC(=O)O (centres undefined) | 4.95% | – | 0.0058 µM [falling, full curve, poor fit]
CC1(C)O[C@@H]2C[C@H]3[C@@H]4C[C@H](F)C5=CC(=O)CC[C@]5(C)[C@H]4[C@@H](O)C[C@]3(C)[C@]2(C(=O)CO)O1 | -26.4% | – | 20.6 µM [falling, single point]
O=C(NC1CCCCC1)N1CCCC(c2nc3ccccc3[nH]2)C1 (centres undefined) | 20.8% | – | 14.6 µM [rising, partial curve]
CC(=O)c1ccc(N2CCN(C(=O)CCCn3c(=O)[nH]c4ccccc4c3=O)CC2)cc1 | -20.8% | 0.13 µM [falling, full curve, poor fit] | –
CC(C)(C)C(=O)Cn1ncc(Br)c(Br)c1=O | -37.1% | 3.66 µM [falling, full curve] | –
Cc1ccc(C23CC4CC(CC(C(N)=O)(C4)C2)C3)cc1 | -18.6% | – | –
COCC1CCN(C(=O)C2CCC(=O)N(C3CCCC3)C2)CC1 (centres undefined) | 0.612% | – | 4.11 µM [falling, single point]
COC(=O)[C@@H](NC(=O)O[C@H]1C(=O)c2ccc(OC)cc2O[C@@H]1c1ccc2c(c1)OCO2)C(C)C | 22.6% | – | 1.03 µM [rising, full curve]
O=C(NNc1ccccc1[N+](=O)[O-])Nc1ccc(Cl)c(Cl)c1 | 0.334% | – | –
CC1CCC(NC(=O)C(NS(=O)(=O)c2cccc3nsnc23)C(C)C)CC1 (centres undefined) | -54% | 29.1 µM [falling, single point] | –
Cc1ccc(OCc2nnc(N)s2)cc1 | 1.74% | – | –
COc1ccc(NS(=O)(=O)c2ccc(O)c(NC(=O)c3cc4c(C)nn(-c5ccc(F)cc5)c4s3)c2)cc1 | -78.4% | 29.1 µM [falling, single point] | 18.4 µM [falling, single point]

As a working copy, some entries already given:
Compound | cell number change | AC50 [1] | AC50 [2]
CC(C)(C)C(=O)Cn1ncc(Br)c(Br)c1=O | -37.1% | 3.66 µM [falling, full curve] | –
Cc1ccc(C23CC4CC(CC(C(N)=O)(C4)C2)C3)cc1 | -18.6% | – | –
COCC1CCN(C(=O)C2CCC(=O)N(C3CCCC3)C2)CC1 (centres undefined) | 0.612% | – | 4.11 µM [falling, single point]
COC(=O)[C@@H](NC(=O)O[C@H]1C(=O)c2ccc(OC)cc2O[C@@H]1c1ccc2c(c1)OCO2)C(C)C | 22.6% | – | 1.03 µM [rising, full curve]
O=C(NNc1ccccc1[N+](=O)[O-])Nc1ccc(Cl)c(Cl)c1 | 0.334% | – | –
CC1CCC(NC(=O)C(NS(=O)(=O)c2cccc3nsnc23)C(C)C)CC1 (centres undefined) | -54% | 29.1 µM [falling, single point] | –
Cc1ccc(OCc2nnc(N)s2)cc1 | 1.74% | – | –
COc1ccc(NS(=O)(=O)c2ccc(O)c(NC(=O)c3cc4c(C)nn(-c5ccc(F)cc5)c4s3)c2)cc1 | -78.4% | 29.1 µM [falling, single point] | 18.4 µM [falling, single point]
